Measurements reported in publication PMC9117644 (Frontiers in Bioengineering and Biotechnology, 2022).
Results are given in words; binding and its absence hold for the method and conditions named. For part of these data: In cells and extracts the contact can be indirect. Some results given as binding are weak or reduced against the parent protein; the word gives no strength. For part of these data: Sequences can lack the tags named with a protein. Each block holds one molecule with its values, some of them ahead of it.

The chains behind the UniProt entries cited, without tags or fusion partners. Residues count along the entry.
UniProt O00206, residues 23-629: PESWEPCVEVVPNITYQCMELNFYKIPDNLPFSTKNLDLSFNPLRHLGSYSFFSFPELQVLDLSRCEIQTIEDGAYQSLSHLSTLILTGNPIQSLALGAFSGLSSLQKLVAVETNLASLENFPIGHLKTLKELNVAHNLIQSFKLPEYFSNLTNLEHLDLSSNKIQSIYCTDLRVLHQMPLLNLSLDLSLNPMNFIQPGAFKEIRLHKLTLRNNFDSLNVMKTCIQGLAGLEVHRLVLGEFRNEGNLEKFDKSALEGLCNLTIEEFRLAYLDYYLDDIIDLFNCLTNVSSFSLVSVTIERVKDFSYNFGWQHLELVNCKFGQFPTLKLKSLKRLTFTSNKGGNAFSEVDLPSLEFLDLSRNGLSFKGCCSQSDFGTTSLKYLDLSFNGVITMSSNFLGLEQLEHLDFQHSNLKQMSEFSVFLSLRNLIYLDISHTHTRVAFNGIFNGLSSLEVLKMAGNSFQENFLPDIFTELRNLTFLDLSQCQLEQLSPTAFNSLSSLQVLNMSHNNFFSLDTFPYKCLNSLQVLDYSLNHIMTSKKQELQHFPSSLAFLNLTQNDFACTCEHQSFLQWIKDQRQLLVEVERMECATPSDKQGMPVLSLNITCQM

How the values were obtained:
[1] = target: T1, human TLR4 ectodomain (S2-derived) (human, UniProt O00206 23-629); test: SEC; analytical SEC, Superdex 200 Increase 30/100 on a Dionex Ultimate 3000 UHPLC; 100-µl injections of 200 µg TLR4, 400 µg MD-2, or 200 µg TLR4 + 400 µg MD-2; A280 traces; both purified
T1 construct: human toll-like receptor 4 ectodomain, UniProtKB O00206, P23-M629, Drosophila codon-optimized; Cloned into pExpreS2-1-CRPA (Addgene #175445): N-terminal BiP signal peptide for secretion, C-terminal thrombin-cleavable Protein A tag; a few residues of the thrombin site probably remain after cleavage; also called toll-like receptor 4; Drosophila-derived TLR4; source: purified (IgG Sepharose, …)

[2] = target: human MD-2 (S2-derived, Protein A tagged) (human) (UniProt Q9Y6Y9); test: as above
[3] = target: human TLR4 ectodomain co-expressed with MD-2 in S2 cells (human) (UniProt O00206); test: pull-down; TLR4 and MD-2 co-expressed in S2 cells; complex purified by IgG pull-down through the Protein A tag and SEC; bands confirmed by in-gel tryptic digest MSMS

binding [1]: no binding
Molecule: human TLR4 ectodomain (S2-derived) (from UniProt O00206 23-629) (domain or fragment)

binding [2]: binds
B1: human MD-2 (S2-derived, Protein A tagged) (natural protein, UniProt Q9Y6Y9 19-160, looked up)
chain: QKQYWVCNSSDASISYTYCDKMQYPISINVNPCIELKRSKGLLHIFYIPRRDLKQLYFNLYITVNTMNLPKRKEVICRGSDDDYSFCRALKGETVNTTISFSFKGIKFSKGKYKCVVEAISGSPEEMLFCLEFVILHQPNSN
notes: human lymphocyte antigen 96 (MD-2), UniProtKB Q9Y6Y9, Q19-N160, Drosophila codon-optimized; Cloned into pExpreS2-1-CRPA (Addgene #175445): N-terminal BiP signal peptide for secretion, thrombin site and Protein A at the C-terminus; the tag was routinely left on for stability; also called lymphocyte antigen 96; source: purified (IgG Sepharose, SEC); not shown: Protein A, C-terminal, kept

binding [3]: binds
B2: human MD-2 co-expressed with TLR4 in S2 cells (protein, UniProt Q9Y6Y9 19-160)
chain: QKQYWVCNSSDASISYTYCDKMQYPISINVNPCIELKRSKGLLHIFYIPRRDLKQLYFNLYITVNTMNLPKRKEVICRGSDDDYSFCRALKGETVNTTISFSFKGIKFSKGKYKCVVEAISGSPEEMLFCLEFVILHQPNSN
